Earlier results as cited in US12370241B2, “Nasal powder formulation for treatment of hypoglycemia” (AMPHASTAR PHARMACEUTICALS, INC., priority 2015, dated 2025).

Settings: water; cited from earlier work

For `OC[C@H]1O[C@@H]2O[C@H]3[C@H](O)[C@@H](O)[C@@H](O[C@H]4[C@H](O)[C@@H](O)[C@@H](O[C@H]5[C@H](O)[C@@H](O)[C@@H](O[C@H]6[C@H](O)[C@@H](O)[C@@H](O[C@H]7[C@H](O)[C@@H](O)[C@@H](O[C@H]1[C@H](O)[C@H]2O)O[C@@H]7CO)O[C@@H]6CO)O[C@@H]5CO)O[C@@H]4CO)O[C@@H]3CO` [α-CD, α (alpha)-cyclodextrin], the Aqueous solubility is listed as “about 5 wt %”.
